Measurements as given in publication PMC11982326.
These are yes or no findings as the source states them, for the method shown. In cells and extracts the contact can be indirect. Here binding means that the protein was enriched with, or labelled near, the bait; the list need not be complete.

By UniProt entry, the sequences of proteins in these tests, tags left out.
UniProt Q9BYJ9: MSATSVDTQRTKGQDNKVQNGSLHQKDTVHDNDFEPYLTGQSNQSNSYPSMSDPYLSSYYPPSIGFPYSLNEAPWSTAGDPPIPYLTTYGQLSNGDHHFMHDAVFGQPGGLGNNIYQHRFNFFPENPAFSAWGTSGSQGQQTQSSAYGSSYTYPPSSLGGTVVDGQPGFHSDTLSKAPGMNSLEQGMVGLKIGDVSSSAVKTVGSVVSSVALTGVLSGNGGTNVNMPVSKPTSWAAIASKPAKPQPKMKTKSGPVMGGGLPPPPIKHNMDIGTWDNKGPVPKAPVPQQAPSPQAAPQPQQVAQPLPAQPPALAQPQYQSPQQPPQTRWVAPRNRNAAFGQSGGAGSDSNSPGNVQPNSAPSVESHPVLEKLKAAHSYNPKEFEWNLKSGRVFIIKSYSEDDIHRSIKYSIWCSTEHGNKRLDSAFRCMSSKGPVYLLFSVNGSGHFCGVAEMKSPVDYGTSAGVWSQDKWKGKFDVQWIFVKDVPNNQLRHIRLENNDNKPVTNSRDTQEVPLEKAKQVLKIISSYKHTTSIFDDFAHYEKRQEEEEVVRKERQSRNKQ

Molecular target: Flag-tagged YTHDF1 (YTH domain family protein 1) (UniProt Q9BYJ9)
Experiment: affinity purification with mass spectrometry; Flag-YTHDF1 stably overexpressed in T24 cells, immunoprecipitated with a Flag antibody, IgG as control, LC-MS/MS

B1: eukaryotic translation initiation factor eIF5B (protein, UniProt O60841 1-1220)
chain: MGKKQKNKSEDSTKDDIDLDALAAEIEGAGAAKEQEPQKSKGKKKKEKKKQDFDEDDILKELEELSLEAQGIKADRETVAVKPTENNEEEFTSKDKKKKGQKGKKQSFDDNDSEELEDKDSKSKKTAKPKVEMYSGSDDDDDFNKLPKKAKGKAQKSNKKWDGSEEDEDNSKKIKERSRINSSGESGDESDEFLQSRKGQKKNQKNKPGPNIESGNEDDDASFKIKTVAQKKAEKKERERKKRDEEKAKLRKLKEKEELETGKKDQSKQKESQRKFEEETVKSKVTVDTGVIPASEEKAETPTAAEDDNEGDKKKKDKKKKKGEKEEKEKEKKKGPSKATVKAMQEALAKLKEEEERQKREEEERIKRLEELEAKRKEEERLEQEKRERKKQKEKERKERLKKEGKLLTKSQREARARAEATLKLLQAQGVEVPSKDSLPKKRPIYEDKKRKKIPQQLESKEVSESMELCAAVEVMEQGVPEKEETPPPVEPEEEEDTEDAGLDDWEAMASDEETEKVEGNKVHIEVKENPEEEEEEEEEEEEDEESEEEEEEEGESEGSEGDEEDEKVSDEKDSGKTLDKKPSKEMSSDSEYDSDDDRTKEERAYDKAKRRIEKRRLEHSKNVNTEKLRAPIICVLGHVDTGKTKILDKLRHTHVQDGEAGGITQQIGATNVPLEAINEQTKMIKNFDRENVRIPGMLIIDTPGHESFSNLRNRGSSLCDIAILVVDIMHGLEPQTIESINLLKSKKCPFIVALNKIDRLYDWKKSPDSDVAATLKKQKKNTKDEFEERAKAIIVEFAQQGLNAALFYENKDPRTFVSLVPTSAHTGDGMGSLIYLLVELTQTMLSKRLAHCEELRAQVMEVKALPGMGTTIDVILINGRLKEGDTIIVPGVEGPIVTQIRGLLLPPPMKELRVKNQYEKHKEVEAAQGVKILGKDLEKTLAGLPLLVAYKEDEIPVLKDELIHELKQTLNAIKLEEKGVYVQASTLGSLEALLEFLKTSEVPYAGINIGPVHKKDVMKASVMLEHDPQYAVILAFDVRIERDAQEMADSLGVRIFSAEIIYHLFDAFTKYRQDYKKQKQEEFKHIAVFPCKIKILPQYIFNSRDPIVMGVTVEAGQVKQGTPMCVPSKNFVDIGIVTSIEINHKQVDVAKKGQEVCVKIEPIPGESPKMFGRHFEATDILVSKISRQSIDALKDWFRDEMQKSDWQLIVELKKVFEII
  binding: binds
